From paper PMC8356473
No constants are given. Whether binding was seen depends on the method and setting. Binding seen in cells or lysates may run through a third protein. Here binding means that the protein was enriched with, or labelled near, the bait; the list need not be complete. Sequences can lack the tags named with a protein.

Molecular target: T1, FLAG-SH3BGRL3 (SH3 Domain Binding Glutamate Rich Protein Like 3), expressed in SKBR3 cells (human) (UniProt Q9H299)
T1 sequence: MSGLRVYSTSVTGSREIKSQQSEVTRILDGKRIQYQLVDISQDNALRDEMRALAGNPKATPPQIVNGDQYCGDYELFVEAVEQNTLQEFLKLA
Assay: affinity purification with mass spectrometry; lysates of SKBR3 cells transfected with FLAG-SH3BGRL3 or empty vector on anti-FLAG-coupled resin; eluted proteins on SDS-PAGE; three bands absent from the control cut and identified by nanoLC-ESI-LIT-MS/MS

B1: adseverin (also known as scinderin), endogenous in SKBR3 cells (protein, UniProt Q9Y6U3 1-715)
chain: MARELYHEEFARAGKQAGLQVWRIEKLELVPVPQSAHGDFYVGDAYLVLHTAKTSRGFTYHLHFWLGKECSQDESTAAAIFTVQMDDYLGGKPVQNRELQGYESNDFVSYFKGGLKYKAGGVASGLNHVLTNDLTAKRLLHVKGRRVVRATEVPLSWDSFNKGDCFIIDLGTEIYQWCGSSCNKYERLKANQVATGIRYNERKGRSELIVVEEGSEPSELIKVLGEKPELPDGGDDDDIIADISNRKMAKLYMVSDASGSMRVTVVAEENPFSMAMLLSEECFILDHGAAKQIFVWKGKDANPQERKAAMKTAEEFLQQMNYSKNTQIQVLPEGGETPIFKQFFKDWRDKDQSDGFGKVYVTEKVAQIKQIPFDASKLHSSPQMAAQHNMVDDGSGKVEIWRVENNGRIQVDQNSYGEFYGGDCYIILYTYPRGQIIYTWQGANATRDELTTSAFLTVQLDRSLGGQAVQIRVSQGKEPVHLLSLFKDKPLIIYKNGTSKKGGQAPAPPTRLFQVRRNLASITRIVEVDVDANSLNSNDVFVLKLPQNSGYIWVGKGASQEEEKGAEYVASVLKCKTLRIQEGEEPEEFWNSLGGKKDYQTSPLLETQAEDHPPRLYGCSNKTGRFVIEEIPGEFTQDDLAEDDVMLLDAWEQIFIWIGKDANEVEKKESLKSAKMYLETDPSGRDKRTPIVIIKQGHEPPTFTGWFLGWDSSKW
binding: binds
